Laboratory results reported in publication PMC2712759, “Hsp70 Chaperones and Type I PRMTs Are Sequestered at Intranuclear Inclusions Caused by Polyalanine Expansions in PABPN1” (PLoS ONE, 2009).

Amino acid sequences for entries named in this document (tags omitted).
UniProt Q7SIG6: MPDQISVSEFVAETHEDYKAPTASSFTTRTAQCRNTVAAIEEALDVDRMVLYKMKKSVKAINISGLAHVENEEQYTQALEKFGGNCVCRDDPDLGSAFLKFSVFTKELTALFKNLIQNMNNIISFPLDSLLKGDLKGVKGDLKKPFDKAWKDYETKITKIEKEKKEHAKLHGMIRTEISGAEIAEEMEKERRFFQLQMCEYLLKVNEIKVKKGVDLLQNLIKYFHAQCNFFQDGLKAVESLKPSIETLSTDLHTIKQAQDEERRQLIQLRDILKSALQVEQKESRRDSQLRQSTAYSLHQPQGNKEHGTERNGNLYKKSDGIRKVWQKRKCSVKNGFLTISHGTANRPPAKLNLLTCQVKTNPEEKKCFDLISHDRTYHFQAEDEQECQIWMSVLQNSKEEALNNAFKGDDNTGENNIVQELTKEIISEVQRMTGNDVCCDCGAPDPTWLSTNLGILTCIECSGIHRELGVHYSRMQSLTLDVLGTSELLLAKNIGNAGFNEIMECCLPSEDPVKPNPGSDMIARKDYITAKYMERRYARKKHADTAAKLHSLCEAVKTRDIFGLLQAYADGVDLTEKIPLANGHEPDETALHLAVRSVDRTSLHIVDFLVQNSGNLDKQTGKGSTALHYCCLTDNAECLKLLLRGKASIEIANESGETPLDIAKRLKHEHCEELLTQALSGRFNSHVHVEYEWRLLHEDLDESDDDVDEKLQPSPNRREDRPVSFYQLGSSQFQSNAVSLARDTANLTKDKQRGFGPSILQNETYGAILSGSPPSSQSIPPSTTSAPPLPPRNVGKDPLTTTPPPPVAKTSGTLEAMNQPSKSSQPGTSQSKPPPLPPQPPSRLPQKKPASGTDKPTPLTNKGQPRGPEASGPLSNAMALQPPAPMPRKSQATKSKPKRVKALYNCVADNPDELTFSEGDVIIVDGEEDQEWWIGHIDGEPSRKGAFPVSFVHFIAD
UniProt P17879: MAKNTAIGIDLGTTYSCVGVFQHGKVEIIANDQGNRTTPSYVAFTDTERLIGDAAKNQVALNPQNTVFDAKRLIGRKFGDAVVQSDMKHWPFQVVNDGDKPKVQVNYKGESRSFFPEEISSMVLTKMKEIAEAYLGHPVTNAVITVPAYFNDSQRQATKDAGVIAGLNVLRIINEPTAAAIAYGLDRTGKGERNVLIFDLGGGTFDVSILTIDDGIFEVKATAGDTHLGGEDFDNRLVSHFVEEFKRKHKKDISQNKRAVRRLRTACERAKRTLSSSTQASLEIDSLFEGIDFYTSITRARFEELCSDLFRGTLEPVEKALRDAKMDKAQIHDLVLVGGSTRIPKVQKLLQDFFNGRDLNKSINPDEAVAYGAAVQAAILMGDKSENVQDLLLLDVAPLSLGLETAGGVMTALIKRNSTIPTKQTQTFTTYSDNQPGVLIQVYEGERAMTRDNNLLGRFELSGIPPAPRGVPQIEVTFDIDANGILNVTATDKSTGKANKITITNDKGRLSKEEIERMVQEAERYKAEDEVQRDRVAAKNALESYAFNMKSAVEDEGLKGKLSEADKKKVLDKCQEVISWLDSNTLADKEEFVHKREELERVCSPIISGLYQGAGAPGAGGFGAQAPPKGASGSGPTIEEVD
UniProt P16627: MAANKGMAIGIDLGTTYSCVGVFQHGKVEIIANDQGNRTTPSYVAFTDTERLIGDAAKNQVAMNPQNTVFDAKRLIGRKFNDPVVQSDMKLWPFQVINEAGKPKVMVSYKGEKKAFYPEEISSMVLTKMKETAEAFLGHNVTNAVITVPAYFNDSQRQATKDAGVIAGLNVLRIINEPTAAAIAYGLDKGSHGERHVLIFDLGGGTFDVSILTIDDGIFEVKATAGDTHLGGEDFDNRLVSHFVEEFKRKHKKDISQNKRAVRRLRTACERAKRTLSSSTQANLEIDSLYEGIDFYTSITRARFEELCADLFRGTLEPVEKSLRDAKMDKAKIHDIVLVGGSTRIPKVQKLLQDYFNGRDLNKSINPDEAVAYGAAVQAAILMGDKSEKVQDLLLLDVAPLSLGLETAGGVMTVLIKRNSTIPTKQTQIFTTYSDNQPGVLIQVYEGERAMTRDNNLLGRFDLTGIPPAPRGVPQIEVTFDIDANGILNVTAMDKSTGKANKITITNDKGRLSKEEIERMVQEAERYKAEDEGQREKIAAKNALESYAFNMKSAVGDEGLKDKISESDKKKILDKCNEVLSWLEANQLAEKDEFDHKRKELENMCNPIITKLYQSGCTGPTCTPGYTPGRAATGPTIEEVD
UniProt Q9EPL8: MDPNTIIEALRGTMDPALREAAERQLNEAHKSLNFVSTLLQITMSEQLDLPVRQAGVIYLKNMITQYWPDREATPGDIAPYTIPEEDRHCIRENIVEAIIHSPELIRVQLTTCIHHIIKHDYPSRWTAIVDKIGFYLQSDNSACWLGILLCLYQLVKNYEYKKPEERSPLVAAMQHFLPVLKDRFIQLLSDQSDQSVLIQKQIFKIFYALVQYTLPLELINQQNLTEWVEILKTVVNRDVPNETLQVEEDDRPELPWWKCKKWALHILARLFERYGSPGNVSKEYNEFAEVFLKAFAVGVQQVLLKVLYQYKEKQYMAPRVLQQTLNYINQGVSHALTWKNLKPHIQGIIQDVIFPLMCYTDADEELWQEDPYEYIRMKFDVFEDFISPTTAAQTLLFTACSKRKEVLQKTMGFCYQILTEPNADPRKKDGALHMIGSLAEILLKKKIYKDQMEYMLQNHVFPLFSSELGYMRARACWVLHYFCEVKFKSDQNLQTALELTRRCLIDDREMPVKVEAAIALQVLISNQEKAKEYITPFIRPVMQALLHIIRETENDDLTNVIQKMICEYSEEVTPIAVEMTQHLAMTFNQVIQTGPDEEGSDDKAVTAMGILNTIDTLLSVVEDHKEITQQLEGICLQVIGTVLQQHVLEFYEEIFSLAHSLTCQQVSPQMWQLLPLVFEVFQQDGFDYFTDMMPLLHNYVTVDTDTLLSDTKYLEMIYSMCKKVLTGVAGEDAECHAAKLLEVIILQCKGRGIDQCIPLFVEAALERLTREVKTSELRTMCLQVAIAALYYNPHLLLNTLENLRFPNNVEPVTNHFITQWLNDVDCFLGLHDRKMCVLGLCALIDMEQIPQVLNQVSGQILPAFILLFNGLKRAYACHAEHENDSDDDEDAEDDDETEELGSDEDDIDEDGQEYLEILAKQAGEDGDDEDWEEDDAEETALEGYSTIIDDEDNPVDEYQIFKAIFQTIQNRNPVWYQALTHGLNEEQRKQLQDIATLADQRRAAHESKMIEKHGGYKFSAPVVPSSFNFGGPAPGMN
UniProt Q80XB4: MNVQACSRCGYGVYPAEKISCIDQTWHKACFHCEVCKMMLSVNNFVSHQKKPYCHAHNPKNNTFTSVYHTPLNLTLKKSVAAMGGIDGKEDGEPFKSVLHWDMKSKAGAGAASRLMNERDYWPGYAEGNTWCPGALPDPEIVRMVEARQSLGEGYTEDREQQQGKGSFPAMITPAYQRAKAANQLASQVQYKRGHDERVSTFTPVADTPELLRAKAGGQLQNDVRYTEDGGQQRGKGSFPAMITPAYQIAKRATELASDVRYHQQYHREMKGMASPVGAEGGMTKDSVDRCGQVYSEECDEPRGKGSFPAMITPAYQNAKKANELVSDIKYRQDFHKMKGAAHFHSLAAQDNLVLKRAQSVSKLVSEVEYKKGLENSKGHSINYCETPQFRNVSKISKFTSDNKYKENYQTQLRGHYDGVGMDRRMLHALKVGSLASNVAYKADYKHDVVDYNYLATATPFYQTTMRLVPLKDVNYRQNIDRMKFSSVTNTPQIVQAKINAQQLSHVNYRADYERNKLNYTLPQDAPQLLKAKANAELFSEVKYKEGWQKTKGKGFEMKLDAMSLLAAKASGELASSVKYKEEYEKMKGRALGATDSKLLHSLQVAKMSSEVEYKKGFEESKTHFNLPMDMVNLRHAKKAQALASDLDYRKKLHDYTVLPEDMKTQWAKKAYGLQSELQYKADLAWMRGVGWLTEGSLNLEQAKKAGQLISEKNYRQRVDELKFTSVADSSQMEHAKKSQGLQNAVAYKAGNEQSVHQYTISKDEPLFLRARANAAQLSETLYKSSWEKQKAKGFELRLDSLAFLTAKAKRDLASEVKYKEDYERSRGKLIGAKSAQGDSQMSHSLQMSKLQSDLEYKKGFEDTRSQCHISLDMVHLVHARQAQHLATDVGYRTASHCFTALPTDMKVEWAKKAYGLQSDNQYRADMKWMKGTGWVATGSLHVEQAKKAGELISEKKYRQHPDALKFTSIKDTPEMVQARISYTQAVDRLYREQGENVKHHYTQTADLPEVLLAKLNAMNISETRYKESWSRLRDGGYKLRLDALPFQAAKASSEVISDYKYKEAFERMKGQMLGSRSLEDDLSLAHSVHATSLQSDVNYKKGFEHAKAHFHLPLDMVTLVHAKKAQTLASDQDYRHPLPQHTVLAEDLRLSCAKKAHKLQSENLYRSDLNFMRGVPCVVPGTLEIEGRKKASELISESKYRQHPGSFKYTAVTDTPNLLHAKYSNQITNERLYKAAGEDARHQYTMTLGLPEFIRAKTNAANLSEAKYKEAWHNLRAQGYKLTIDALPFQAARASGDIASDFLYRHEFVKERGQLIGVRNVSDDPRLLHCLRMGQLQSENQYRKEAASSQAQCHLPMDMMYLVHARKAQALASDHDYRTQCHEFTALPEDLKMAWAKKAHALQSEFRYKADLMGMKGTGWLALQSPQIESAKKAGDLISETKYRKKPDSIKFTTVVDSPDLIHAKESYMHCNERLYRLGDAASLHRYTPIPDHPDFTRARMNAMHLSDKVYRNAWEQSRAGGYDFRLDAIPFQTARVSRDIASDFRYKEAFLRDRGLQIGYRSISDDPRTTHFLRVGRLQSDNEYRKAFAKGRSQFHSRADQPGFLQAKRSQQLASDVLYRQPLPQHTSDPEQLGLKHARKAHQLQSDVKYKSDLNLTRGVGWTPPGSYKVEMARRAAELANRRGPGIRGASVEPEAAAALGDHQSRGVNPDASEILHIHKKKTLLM
UniProt Q9JIF0: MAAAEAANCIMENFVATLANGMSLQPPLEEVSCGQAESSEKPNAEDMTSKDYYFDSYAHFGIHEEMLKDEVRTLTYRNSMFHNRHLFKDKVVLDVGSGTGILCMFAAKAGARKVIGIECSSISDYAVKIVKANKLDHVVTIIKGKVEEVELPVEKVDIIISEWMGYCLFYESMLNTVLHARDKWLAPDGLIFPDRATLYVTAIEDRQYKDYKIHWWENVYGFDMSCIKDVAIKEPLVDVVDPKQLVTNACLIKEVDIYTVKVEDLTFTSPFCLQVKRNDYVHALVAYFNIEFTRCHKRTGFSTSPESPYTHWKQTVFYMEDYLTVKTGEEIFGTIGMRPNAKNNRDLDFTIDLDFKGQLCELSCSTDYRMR
UniProt Q8VEK3: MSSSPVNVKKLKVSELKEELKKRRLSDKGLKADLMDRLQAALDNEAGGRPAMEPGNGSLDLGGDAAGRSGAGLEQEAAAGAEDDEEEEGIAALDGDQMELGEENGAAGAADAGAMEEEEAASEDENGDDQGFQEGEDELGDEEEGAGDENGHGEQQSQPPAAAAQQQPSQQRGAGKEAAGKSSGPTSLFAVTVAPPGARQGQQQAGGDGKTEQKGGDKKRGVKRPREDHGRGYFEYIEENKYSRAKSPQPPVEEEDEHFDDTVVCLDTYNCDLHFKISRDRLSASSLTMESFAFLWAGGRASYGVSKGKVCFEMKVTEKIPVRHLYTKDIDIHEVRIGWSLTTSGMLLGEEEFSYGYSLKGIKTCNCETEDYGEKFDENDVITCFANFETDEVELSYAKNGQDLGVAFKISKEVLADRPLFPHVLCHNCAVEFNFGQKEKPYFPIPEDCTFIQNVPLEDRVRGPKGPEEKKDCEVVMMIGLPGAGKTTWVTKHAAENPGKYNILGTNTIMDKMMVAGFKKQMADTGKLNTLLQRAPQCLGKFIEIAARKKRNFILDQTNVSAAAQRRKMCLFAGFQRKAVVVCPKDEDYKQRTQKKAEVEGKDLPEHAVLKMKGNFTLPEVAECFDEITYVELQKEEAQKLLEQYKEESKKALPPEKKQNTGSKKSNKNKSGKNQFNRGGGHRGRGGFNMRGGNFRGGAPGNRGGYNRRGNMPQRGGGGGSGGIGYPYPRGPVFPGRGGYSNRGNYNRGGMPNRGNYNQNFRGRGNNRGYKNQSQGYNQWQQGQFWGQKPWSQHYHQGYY

Tests used:
[1] = target: T1, normal human PABPN1 (poly(A)-binding protein nuclear 1), homopolymer of 10 alanine residues, His-tagged, biotinylated (human) (UniProt Q86U42); assay: affinity purification with mass spectrometry; biotinylated His-PABPN1 (2 µg) on streptavidin-agarose beads, incubated with RNase A-treated extracts of undifferentiated (myoblasts) and differentiated (myotubes) C2 cells, 4 h at 4°C, 20 mM Tris pH 8.0, 200 mM KCl, 10% glycerol; bands excised from SDS-PAGE, MALDI-MS; only the target purified
T1 sequence (chain, biotin (EZ-Link PEO-Maleimide Activated Biotin)): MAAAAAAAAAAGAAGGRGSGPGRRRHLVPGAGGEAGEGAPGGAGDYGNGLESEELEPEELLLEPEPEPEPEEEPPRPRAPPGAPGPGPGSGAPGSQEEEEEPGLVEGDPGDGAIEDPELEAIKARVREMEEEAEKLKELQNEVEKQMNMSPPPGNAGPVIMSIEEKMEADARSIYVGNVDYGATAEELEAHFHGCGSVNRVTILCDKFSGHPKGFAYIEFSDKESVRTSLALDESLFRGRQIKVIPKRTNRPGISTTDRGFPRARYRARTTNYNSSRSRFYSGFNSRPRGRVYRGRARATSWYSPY

[2] = target: T2, expanded human PABPN1, tract of 17 alanine residues, His-tagged, biotinylated (human) (UniProt Q86U42); assay: as above
T2 sequence (chain, biotin (EZ-Link PEO-Maleimide Activated Biotin)): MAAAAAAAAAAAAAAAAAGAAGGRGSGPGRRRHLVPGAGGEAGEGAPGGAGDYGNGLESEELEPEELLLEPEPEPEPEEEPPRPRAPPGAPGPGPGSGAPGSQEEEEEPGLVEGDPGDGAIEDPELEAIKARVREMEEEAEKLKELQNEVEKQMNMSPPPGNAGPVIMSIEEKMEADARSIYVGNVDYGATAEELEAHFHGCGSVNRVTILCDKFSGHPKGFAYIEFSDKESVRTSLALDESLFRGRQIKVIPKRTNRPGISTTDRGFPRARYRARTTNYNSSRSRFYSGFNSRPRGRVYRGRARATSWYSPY

Substance | binding [1] | binding [2]
CREB-binding protein (from UniProt P45481 1-2441) | binds | binds
DDEF2 (from UniProt Q7SIG6 1-958) | binds | binds
Gspt1 (from UniProt Q8R050 1-636) | binds | binds
HSP70 1A (from UniProt Q61696 1-641) | binds | binds
HSP70 1B (from UniProt P17879 1-642) | binds | binds
HSP70 1L (from UniProt P16627 1-641) | binds | binds
IMPORTIN 7 (from UniProt Q9EPL8 1-1038) | binds | binds
N-RAP (from UniProt Q80XB4 1-1728) | binds | binds
PRMT1 (protein arginine methyl transferase 1) (from UniProt Q9JIF0 1-371) (enzyme) | binds | binds
PRMT3 (protein arginine methyl transferase 3) (from UniProt Q922H1 1-528) (enzyme) | binds | binds
hnRNP U (from UniProt Q8VEK3 1-800) | binds | binds

These are yes or no findings as the source states them, for the method shown. In cells and extracts the contact can be indirect. Here binding means that the protein was enriched with, or labelled near, the bait; the list need not be complete. Where a sequence is shown, tags or fusion partners need not be part of it.
